Consider 50 compounds from the supplement of paper PMC6331611.

“And” between values parts separate entries of the source, which are not always exact repeats. Equal values may be shown once. ± gives the standard deviation of the averaged measurements. In all, about 1,600 compounds were measured (“normalized growth (OD600, IQM-normalized) in LPM”: median about 1, lowest 2% from about 0.014 on). The list shows a part of the results.

This experiment deals with Salmonella enterica serovar Typhimurium SL1344. Briefly: normalized growth (OD600, IQM-normalized) in LPM (fraction of plate interquartile mean); higher = more bacterial growth (less inhibition). The conditions noted are these: LPM pH 5.8; 10 µM; 16 h.
Compound `CC(O)(CC(=O)O)CC(=O)O` came in with a normalized growth of 0.921 ± 0.018.
Take `NNC(=O)c1ccncc1.Nc1ccc(C(=O)O)c(O)c1`: the normalized growth is 0.825 ± 0.0087.
Take `CCCc1nn(C)c2c(=O)[nH]c(-c3cc(S(=O)(=O)N4CCN(C)CC4)ccc3OCC)nc12`: the normalized growth stood at 1.11 ± 0.04.
The result for `O=[N+]([O-])c1ccc(O)c2ncccc12` reads 0.00762 ± 0.00015.
Consider `O=C1O[C@H]([C@@H](O)CO)C(O)=C1O`, for which the normalized growth was found to be 0.957 ± 0.024.
The compound `Clc1ccc(C(c2ccccc2Cl)C(Cl)Cl)cc1` (stereo not given) had a normalized growth of 1.03 ± 0.016.
Under `OCCc1ccccc1` stands 1.12 ± 0.033; under `O=C(O)c1ccccc1Nc1cccc(C(F)(F)F)c1`, 0.9784 ± 0.0073.
Under `CC(=O)Nc1ccc(S(=O)(=O)c2ccc(NC(C)=O)cc2)cc1` stands 0.889 ± 0.067; under `Nc1ccc(C(=O)O)c(O)c1`, 0.81 ± 0.048.
Take `Nc1nc(/C(=C/CC(=O)O)C(=O)N[C@@H]2C(=O)N3C(C(=O)O)=CCS[C@H]23)cs1`: the normalized growth worked out at 0.154 ± 0.061.
The compound `CCC(=O)O[C@]1(C(=O)SCF)[C@H](C)C[C@H]2[C@@H]3C[C@H](F)C4=CC(=O)C=C[C@]4(C)[C@@]3(F)[C@@H](O)C[C@@]21C` displayed a normalized growth of 1.05 ± 0.04.
Turning to `CN(C)CCOC(=O)C(c1ccccc1)C1(O)CCCC1` (stereo not given), the normalized growth was 0.955 ± 0.15.
As to `C[C@H](N[C@@H](CCc1ccccc1)C(=O)O)C(=O)N1Cc2ccccc2C[C@H]1C(=O)O`, the normalized growth turned out to be 1.02 ± 0.05.
Compound `Nc1ccc(/N=N/c2ccccc2)c(N)n1` came in with a normalized growth of 1.07 ± 0.03.
`OC(CCN1CCCCC1)(c1ccccc1)c1ccccc1`: the normalized growth stood at 1.13 ± 0.04.
Under `CCCCC(=O)N(Cc1ccc(-c2ccccc2-c2nnn[nH]2)cc1)[C@H](C(=O)O)C(C)C` stands 0.845 ± 0.034; under `CCN(CC)CCNC(=O)c1cc(Br)c(N)cc1OC`, 0.927 ± 0.028; under `CCOC(N)=O`, 0.916 ± 0.056.
Under `O=C1c2cccc(O)c2C(=O)c2c(O)cccc21` stands 0.827 ± 0.05; under `CC(C)NNC(=O)c1ccncc1`, 0.978 ± 0.028.
`CSCC[C@H](NC(=O)[C@H](Cc1c[nH]c2ccccc12)NC(=O)CCNC(=O)OC(C)(C)C)C(=O)N[C@@H](CC(=O)O)C(=O)N[C@@H](Cc1ccccc1)C(N)=O` showed a normalized growth of 1.09 ± 0.026.
Under `CN(C)CCc1c[nH]c2ccc(CS(=O)(=O)N3CCCC3)cc12` stands 0.986 ± 0.045; under `CN1CCN2c3ccccc3Cc3ccccc3C2C1` (stereo not given), 0.984 ± 0.042; under `O=C(O)CCC(=O)c1ccc(-c2ccccc2)cc1`, 1.042 ± 0.01.
`O=C1c2c(O)ccc(O)c2C(=O)c2c(NCCNCCO)ccc(NCCNCCO)c21` displayed a normalized growth of 0.951 ± 0.044.
On to `C[C@H](CCC(=O)O)[C@H]1CC[C@H]2[C@@H]3C(=O)C[C@@H]4CC(=O)CC[C@]4(C)[C@H]3CC(=O)[C@]12C`, for which the normalized growth is 0.981 and 1.07.
As for `CO[C@H]1C[C@H](O[C@@H]2/C(C)=C/C[C@@H]3C[C@@H](C[C@]4(CC[C@H](C)[C@@H](C5CCCCC5)O4)O3)OC(=O)[C@@H]3C=C(C)/C(=N/O)[C@H]4OC/C(=C\C=C\[C@@H]2C)[C@]43O)O[C@@H](C)[C@@H]1O`, the normalized growth was found to be 0.916 ± 0.01.
The result for `CCOC(=O)C1=C(C)NC(C)=C(C(=O)OC)C1c1cccc(Cl)c1Cl` (stereo not given) reads 0.935 ± 0.076.
In the case of `OC[C@H]1O[C@@H](O[C@H]2[C@H](O)[C@@H](O)C(O)O[C@@H]2CO)[C@H](O)[C@@H](O)[C@H]1O` (stereo not given in full), the normalized growth was determined as 1.14 ± 0.057.
Take `COC(=O)/C=C/C(=O)OC`: the normalized growth worked out at 1.42 ± 0.16.
Compound `CC(C)(C)NC[C@H](O)COc1cccc2c1CCCC2=O` had a normalized growth of 0.9944 ± 0.0084.
Under `C[N+](C)(C)CCOC(N)=O` stands 0.974 ± 0.025; under `O=C(NC(Cc1cc(=O)[nH]c2ccccc12)C(=O)O)c1ccc(Cl)cc1` (stereo not given), 0.938 ± 0.015.
Regarding `CCC(=O)OCC(=O)[C@@]1(OC(=O)CC)[C@@H](C)C[C@H]2[C@@H]3CCC4=CC(=O)C=C[C@]4(C)[C@@]3(F)[C@@H](O)C[C@@]21C`, the normalized growth came out at 1.06 ± 0.047.
The result for `CC1(C)O[C@@H]2C[C@H]3[C@@H]4C[C@H](F)C5=CC(=O)CC[C@]5(C)[C@H]4[C@@H](O)C[C@]3(C)[C@]2(C(=O)CO)O1` reads 1.12 ± 0.017; that for `NNC(=O)c1ccncc1`, 0.945 ± 0.06.
As for `COc1ccc(-c2ccc3cc(C(=O)O)ccc3c2)cc1C12CC3CC(CC(C3)C1)C2`, the normalized growth was found to be 0.812 ± 0.024.
With `CCN1CCCC1CNC(=O)c1cc(S(N)(=O)=O)ccc1OC` (stereo not given), the normalized growth is 1.05 ± 0.042.
Consider `Cc1cccc(N(C)C(=S)Oc2ccc3ccccc3c2)c1`, for which the normalized growth stood at 1.7 ± 0.24.
The result for `N[C@@H](COP(=O)(O)O)C(=O)O` reads 1 ± 0.028; that for `O=c1[nH]c(=O)n([C@H]2C[C@H](O)[C@@H](CO)O2)cc1I`, 1.05 ± 0.026; that for `CCCCc1oc2ccccc2c1C(=O)c1cc(I)c(OCCN(CC)CC)c(I)c1`, 0.994 ± 0.039.
As for `CCOc1ccc(Cc2nccc3cc(OCC)c(OCC)cc23)cc1OCC`, the normalized growth came to 0.9951 ± 0.0073.
`O=C(Nc1ccc([N+](=O)[O-])cc1Cl)c1cc(Cl)ccc1O` came in with a normalized growth of 0.984 ± 0.019.
The compound `C#C[C@]1(O)CC[C@H]2[C@@H]3CCC4=Cc5oncc5C[C@]4(C)[C@H]3CC[C@@]21C` gave a normalized growth of 0.915 ± 0.011.
`Nc1ccc(S(=O)(=O)O)cc1.Nc1ccc(S(=O)(=O)O)cc1.[Zn]` gave a normalized growth of 1.1324 ± 0.0009.
`CC12CC3CC(C)(C1)CC(N)(C3)C2` had a normalized growth of 0.879 ± 0.13.
As for `CN1C(C(=O)Nc2ccccn2)=C(O)c2sc(Cl)cc2S1(=O)=O`, the normalized growth is 1 ± 0.014.
With `CN1CCCN=C1/C=C/c1cccs1`, the normalized growth is 0.951 ± 0.041.
